Test results taken from the supplement of paper PMC8728848.
The list shows a part of the results.

Columns and labels:
Assay in all cases: glycan array binding signal (z-score within array); higher = stronger binding
Details in all cases: glycan notation: IUPAC condensed, linker removed
[1] = target: Gal(b1-4)GlcNAc(b1-3)Gal(b1-4)GlcNAc(b1-2)Man(a1-3)[Gal(b1-4)GlcNAc(b1-3)Gal(b1-4)GlcNAc(b1-2)Man(a1-6)]Man(b1-4)GlcNAc(b1-4)[Fuc(a1-6)]GlcNAc
In short: (§1)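 From the Consortium for Functional Glycomics database, 3228 arrays were curated, keeping only those whose protein sequence was available. Binding is given as a within-array Z-score averaged across arrays sharing a protein sequence and across linkers. Negative Z-scores can be read as non-binding.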

[2] = target: Gal(b1-4)GlcNAc(b1-3)Gal(b1-4)GlcNAc(b1-2)[Gal(b1-4)GlcNAc(b1-3)Gal(b1-4)GlcNAc(b1-6)]Man(a1-6)[Gal(b1-4)GlcNAc(b1-3)Gal(b1-4)GlcNAc(b1-2)Man(a1-3)]Man(b1-4)GlcNAc(b1-4)GlcNAc
In short: as §1

[3] = target: Gal(b1-4)GlcNAc(b1-3)Gal(b1-4)GlcNAc(b1-2)[Gal(b1-4)GlcNAc(b1-3)Gal(b1-4)GlcNAc(b1-6)]Man(a1-6)[Gal(b1-4)GlcNAc(b1-3)Gal(b1-4)GlcNAc(b1-2)Man(a1-3)]Man(b1-4)GlcNAc(b1-4)[Fuc(a1-6)]GlcNAc
In short: as §1

[4] = target: Gal(b1-4)GlcNAc(b1-3)Gal(b1-4)GlcNAc(b1-3)Gal(b1-4)GlcNAc
In short: as §1

[5] = target: Gal(b1-4)GlcNAc(b1-3)Gal(b1-4)GlcNAc(b1-3)Gal(b1-4)GlcNAc(b1-2)Man(a1-3)[Gal(b1-4)GlcNAc(b1-3)Gal(b1-4)GlcNAc(b1-3)Gal(b1-4)GlcNAc(b1-2)Man(a1-6)]Man(b1-4)GlcNAc(b1-4)GlcNAc
In short: as §1

[6] = target: Gal(b1-4)GlcNAc(b1-3)Gal(b1-4)GlcNAc(b1-3)Gal(b1-4)GlcNAc(b1-2)Man(a1-3)[Gal(b1-4)GlcNAc(b1-3)Gal(b1-4)GlcNAc(b1-3)Gal(b1-4)GlcNAc(b1-2)Man(a1-6)]Man(b1-4)GlcNAc(b1-4)[Fuc(a1-6)]GlcNAc
In short: as §1

[7] = target: Gal(b1-4)GlcNAc(b1-3)Gal(b1-4)GlcNAc(b1-3)Gal(b1-4)GlcNAc(b1-2)[Gal(b1-4)GlcNAc(b1-3)Gal(b1-4)GlcNAc(b1-3)Gal(b1-4)GlcNAc(b1-6)]Man(a1-6)[Gal(b1-4)GlcNAc(b1-3)Gal(b1-4)GlcNAc(b1-3)Gal(b1-4)GlcNAc(b1-2)Man(a1-3)]Man(b1-4)GlcNAc(b1-4)[Fuc(a1-6)]GlcNAc
In short: as §1

[8] = target: Gal(b1-4)GlcNAc(b1-3)Gal(b1-4)GlcNAc(b1-3)Gal(b1-4)GlcNAc(b1-3)Gal(b1-4)GlcNAc(b1-2)Man(a1-3)[Gal(b1-4)GlcNAc(b1-3)Gal(b1-4)GlcNAc(b1-3)Gal(b1-4)GlcNAc(b1-3)Gal(b1-4)GlcNAc(b1-2)Man(a1-6)]Man(b1-4)GlcNAc(b1-4)GlcNAc
In short: as §1

[9] = target: Gal(b1-4)GlcNAc(b1-3)Gal(b1-4)GlcNAc(b1-3)Gal(b1-4)GlcNAc(b1-3)Gal(b1-4)GlcNAc(b1-2)Man(a1-3)[Gal(b1-4)GlcNAc(b1-3)Gal(b1-4)GlcNAc(b1-3)Gal(b1-4)GlcNAc(b1-3)Gal(b1-4)GlcNAc(b1-2)Man(a1-6)]Man(b1-4)GlcNAc(b1-4)[Fuc(a1-6)]GlcNAc
In short: as §1

[10] = target: Gal(b1-4)GlcNAc(b1-3)Gal(b1-4)GlcNAc(b1-3)Gal(b1-4)GlcNAc(b1-3)Gal(b1-4)GlcNAc(b1-2)[Gal(b1-4)GlcNAc(b1-3)Gal(b1-4)GlcNAc(b1-3)Gal(b1-4)GlcNAc(b1-3)Gal(b1-4)GlcNAc(b1-6)]Man(a1-6)[Gal(b1-4)GlcNAc(b1-3)Gal(b1-4)GlcNAc(b1-3)Gal(b1-4)GlcNAc(b1-3)Gal(b1-4)GlcNAc(b1-2)Man(a1-3)]Man(b1-4)GlcNAc(b1-4)[Fuc(a1-6)]GlcNAc
In short: as §1

[11] = target: Gal(b1-4)GlcNAc(b1-3)Gal(b1-4)GlcNAc(b1-3)Gal(b1-4)GlcNAc(b1-3)Gal(b1-4)GlcNAc(b1-3)Gal(b1-4)GlcNAc(b1-2)Man(a1-3)[Gal(b1-4)GlcNAc(b1-3)Gal(b1-4)GlcNAc(b1-3)Gal(b1-4)GlcNAc(b1-3)Gal(b1-4)GlcNAc(b1-3)Gal(b1-4)GlcNAc(b1-2)Man(a1-6)]Man(b1-4)GlcNAc(b1-4)GlcNAc
In short: as §1

[12] = target: Gal(b1-4)GlcNAc(b1-3)Gal(b1-4)GlcNAc(b1-3)Gal(b1-4)GlcNAc(b1-3)Gal(b1-4)GlcNAc(b1-3)Gal(b1-4)GlcNAc(b1-2)Man(a1-3)[Gal(b1-4)GlcNAc(b1-3)Gal(b1-4)GlcNAc(b1-3)Gal(b1-4)GlcNAc(b1-3)Gal(b1-4)GlcNAc(b1-3)Gal(b1-4)GlcNAc(b1-2)Man(a1-6)]Man(b1-4)GlcNAc(b1-4)[Fuc(a1-6)]GlcNAc
In short: as §1

[13] = target: Gal(b1-4)GlcNAc(b1-3)Gal(b1-4)GlcNAc(b1-3)Gal(b1-4)GlcNAc(b1-3)Gal(b1-4)GlcNAc(b1-3)Gal(b1-4)GlcNAc(b1-2)[Gal(b1-4)GlcNAc(b1-3)Gal(b1-4)GlcNAc(b1-3)Gal(b1-4)GlcNAc(b1-3)Gal(b1-4)GlcNAc(b1-3)Gal(b1-4)GlcNAc(b1-6)]Man(a1-6)[Gal(b1-4)GlcNAc(b1-3)Gal(b1-4)GlcNAc(b1-3)Gal(b1-4)GlcNAc(b1-3)Gal(b1-4)GlcNAc(b1-3)Gal(b1-4)GlcNAc(b1-2)Man(a1-3)]Man(b1-4)GlcNAc(b1-4)[Fuc(a1-6)]GlcNAc
In short: as §1

[14] = target: Gal(b1-4)GlcNAc(b1-3)Gal(b1-4)GlcNAc(b1-3)Gal(b1-4)GlcNAc(b1-3)Gal(b1-4)GlcNAc(b1-3)Gal(b1-4)GlcNAc(b1-3)Gal(b1-4)GlcNAc(b1-2)Man(a1-3)[Gal(b1-4)GlcNAc(b1-3)Gal(b1-4)GlcNAc(b1-3)Gal(b1-4)GlcNAc(b1-3)Gal(b1-4)GlcNAc(b1-3)Gal(b1-4)GlcNAc(b1-3)Gal(b1-4)GlcNAc(b1-2)Man(a1-6)]Man(b1-4)GlcNAc(b1-4)GlcNAc
In short: as §1

[15] = target: Gal(b1-4)GlcNAc(b1-3)Gal(b1-4)GlcNAc(b1-3)GalNAc
In short: as §1

[16] = target: Gal(b1-4)GlcNAc(b1-3)Gal(b1-4)GlcNAc(b1-3)[Gal(b1-4)GlcNAc(b1-3)Gal(b1-4)GlcNAc(b1-6)]GalNAc
In short: as §1

[17] = target: Gal(b1-4)GlcNAc(b1-3)Gal(b1-4)GlcNAc(b1-6)[Gal(b1-3)]GalNAc
In short: as §1

[18] = target: Gal(b1-4)GlcNAc(b1-3)Gal(b1-4)[Fuc(a1-3)]GlcNAc(b1-3)Gal(b1-4)[Fuc(a1-3)]GlcNAc
In short: as §1

[19] = target: Gal(b1-4)GlcNAc(b1-3)GalNAc
In short: as §1

[20] = target: Gal(b1-4)GlcNAc(b1-3)[Fuc(a1-3)GlcNAc(b1-6)]Gal(b1-4)Glc
In short: as §1

[21] = target: Gal(b1-4)GlcNAc(b1-3)[Gal(b1-4)GlcNAc(b1-6)]Gal(b1-4)GlcNAc
In short: as §1

[22] = target: Gal(b1-4)GlcNAc(b1-3)[GlcNAc(b1-6)]Gal(b1-4)GlcNAc
In short: as §1

[23] = target: Gal(b1-4)GlcNAc(b1-6)Gal(b1-4)GlcNAc
In short: as §1

[24] = target: Gal(b1-4)GlcNAc(b1-6)GalNAc
In short: as §1

[25] = target: Gal(b1-4)GlcNAc(b1-6)[Gal(b1-3)]GalNAc
In short: as §1

[26] = target: Gal(b1-4)GlcNAc(b1-6)[Gal(b1-4)GlcNAc(b1-3)]GalNAc
In short: as §1

Gal(b1-4)GlcNAc6P = target: Gal(b1-4)GlcNAc6P
In short: as §1

Gal(b1-6)Gal = target: Gal(b1-6)Gal
In short: as §1

Gal3S(b1-3)GalNAc = target: Gal3S(b1-3)GalNAc
In short: as §1

Gal3S(b1-3)GlcNAc = target: Gal3S(b1-3)GlcNAc
In short: as §1

[27] = target: Gal3S(b1-3)[Fuc(a1-4)]GlcNAc
In short: as §1

Gal3S(b1-4)Glc = target: Gal3S(b1-4)Glc
In short: as §1

Gal3S(b1-4)Glc6S = target: Gal3S(b1-4)Glc6S
In short: as §1

Gal3S(b1-4)GlcNAc = target: Gal3S(b1-4)GlcNAc
In short: as §1

[28] = target: Gal3S(b1-4)[Fuc(a1-3)]Glc6S
In short: as §1

[29] = target: Gal3S(b1-4)[Fuc(a1-3)]GlcNAc
In short: as §1

[30] = target: Gal3S(b1-4)[Fuc(a1-3)]GlcNAc6S
In short: as §1

B1: RsaA-N-term (Caulobacter crescentus), P35828 (protein)
chain: MAYTTAQLVTAYTNANLGKAPDAATTLTLDAYATQTQTGGLSDAAALTNTLKLVNSTTAVAIQTYQFFTGVAPSAAGLDFLVDSTTNTNDLNDAYYSKFAQENRFINFSINLATGAGAGATAFAAAYTGVSYAQTVATAYDKIIGNAVATAAGVDVAAAVAFLSRQANIDYLTAFVRANTPFTAAADIDLAVKAALIGTILNAATVSGIGGYATATAAMINDLSDGALSTDNAAGVNLFTAYPSSGVSGSTLSLTTGTDTLTGTANNDTFVAGEVAGDGSGWSHPQFEKGG
glycan array binding signal (z-score) [1]: 2.39 | glycan array binding signal (z-score) [2]: -0.563 | glycan array binding signal (z-score) [3]: 1.11 | glycan array binding signal (z-score) [4]: -0.897 | glycan array binding signal (z-score) [5]: 2.09 | glycan array binding signal (z-score) [6]: -0.794 | glycan array binding signal (z-score) [7]: -0.258 | glycan array binding signal (z-score) [8]: 0.106 | glycan array binding signal (z-score) [9]: 0.726 | glycan array binding signal (z-score) [10]: 0.57 | glycan array binding signal (z-score) [11]: 0.366 | glycan array binding signal (z-score) [12]: -0.433 | glycan array binding signal (z-score) [13]: 0.927 | glycan array binding signal (z-score) [14]: -0.072 | glycan array binding signal (z-score) [15]: -0.197 | glycan array binding signal (z-score) [16]: 0.36 | glycan array binding signal (z-score) [17]: -1.1 | glycan array binding signal (z-score) [18]: -0.276 | glycan array binding signal (z-score) [19]: -0.105 | glycan array binding signal (z-score) [20]: -1.33 | glycan array binding signal (z-score) [21]: -0.453 | glycan array binding signal (z-score) [22]: 0.529 | glycan array binding signal (z-score) [23]: -2.87 | glycan array binding signal (z-score) [24]: -0.148 | glycan array binding signal (z-score) [25]: 0.646 | glycan array binding signal (z-score) [26]: -1.08 | glycan array binding signal (z-score) (Gal(b1-4)GlcNAc6P): -0.433 | glycan array binding signal (z-score) (Gal(b1-6)Gal): -0.43 | glycan array binding signal (z-score) (Gal3S(b1-3)GalNAc): 1.7 | glycan array binding signal (z-score) (Gal3S(b1-3)GlcNAc): -0.193 | glycan array binding signal (z-score) [27]: -0.524 | glycan array binding signal (z-score) (Gal3S(b1-4)Glc): -0.58 | glycan array binding signal (z-score) (Gal3S(b1-4)Glc6S): 1.58 | glycan array binding signal (z-score) (Gal3S(b1-4)GlcNAc): 1.08 | glycan array binding signal (z-score) [28]: 0.043 | glycan array binding signal (z-score) [29]: 0.923 | glycan array binding signal (z-score) [30]: 0.377
